Experimental data published in publication PMC11094195.
Where two headings read alike, the source gives them in different places. No constants are given. Whether binding was seen depends on the method and setting. Binding seen in cells or lysates may run through a third protein. These calls come from enrichment with a bait or labelling near it, and not all partners need be listed.

By UniProt entry, the sequences of proteins in these tests, tags left out.
UniProt O75928: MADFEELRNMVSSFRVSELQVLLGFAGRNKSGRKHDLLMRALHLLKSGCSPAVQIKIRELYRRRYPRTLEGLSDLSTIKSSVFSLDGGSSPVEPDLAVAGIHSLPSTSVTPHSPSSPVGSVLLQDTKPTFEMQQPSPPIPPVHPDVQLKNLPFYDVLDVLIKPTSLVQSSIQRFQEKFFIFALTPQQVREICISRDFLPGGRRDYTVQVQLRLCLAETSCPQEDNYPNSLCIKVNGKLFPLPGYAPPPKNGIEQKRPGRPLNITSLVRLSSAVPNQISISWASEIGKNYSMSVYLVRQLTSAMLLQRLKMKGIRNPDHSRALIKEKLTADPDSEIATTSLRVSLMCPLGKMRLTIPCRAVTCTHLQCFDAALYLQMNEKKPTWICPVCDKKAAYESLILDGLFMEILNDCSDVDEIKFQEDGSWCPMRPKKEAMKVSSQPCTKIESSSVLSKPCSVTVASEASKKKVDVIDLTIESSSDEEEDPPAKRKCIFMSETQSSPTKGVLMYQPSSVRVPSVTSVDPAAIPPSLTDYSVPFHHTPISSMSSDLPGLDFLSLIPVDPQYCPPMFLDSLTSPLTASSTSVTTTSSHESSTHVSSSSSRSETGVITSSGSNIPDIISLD
UniProt Q14204: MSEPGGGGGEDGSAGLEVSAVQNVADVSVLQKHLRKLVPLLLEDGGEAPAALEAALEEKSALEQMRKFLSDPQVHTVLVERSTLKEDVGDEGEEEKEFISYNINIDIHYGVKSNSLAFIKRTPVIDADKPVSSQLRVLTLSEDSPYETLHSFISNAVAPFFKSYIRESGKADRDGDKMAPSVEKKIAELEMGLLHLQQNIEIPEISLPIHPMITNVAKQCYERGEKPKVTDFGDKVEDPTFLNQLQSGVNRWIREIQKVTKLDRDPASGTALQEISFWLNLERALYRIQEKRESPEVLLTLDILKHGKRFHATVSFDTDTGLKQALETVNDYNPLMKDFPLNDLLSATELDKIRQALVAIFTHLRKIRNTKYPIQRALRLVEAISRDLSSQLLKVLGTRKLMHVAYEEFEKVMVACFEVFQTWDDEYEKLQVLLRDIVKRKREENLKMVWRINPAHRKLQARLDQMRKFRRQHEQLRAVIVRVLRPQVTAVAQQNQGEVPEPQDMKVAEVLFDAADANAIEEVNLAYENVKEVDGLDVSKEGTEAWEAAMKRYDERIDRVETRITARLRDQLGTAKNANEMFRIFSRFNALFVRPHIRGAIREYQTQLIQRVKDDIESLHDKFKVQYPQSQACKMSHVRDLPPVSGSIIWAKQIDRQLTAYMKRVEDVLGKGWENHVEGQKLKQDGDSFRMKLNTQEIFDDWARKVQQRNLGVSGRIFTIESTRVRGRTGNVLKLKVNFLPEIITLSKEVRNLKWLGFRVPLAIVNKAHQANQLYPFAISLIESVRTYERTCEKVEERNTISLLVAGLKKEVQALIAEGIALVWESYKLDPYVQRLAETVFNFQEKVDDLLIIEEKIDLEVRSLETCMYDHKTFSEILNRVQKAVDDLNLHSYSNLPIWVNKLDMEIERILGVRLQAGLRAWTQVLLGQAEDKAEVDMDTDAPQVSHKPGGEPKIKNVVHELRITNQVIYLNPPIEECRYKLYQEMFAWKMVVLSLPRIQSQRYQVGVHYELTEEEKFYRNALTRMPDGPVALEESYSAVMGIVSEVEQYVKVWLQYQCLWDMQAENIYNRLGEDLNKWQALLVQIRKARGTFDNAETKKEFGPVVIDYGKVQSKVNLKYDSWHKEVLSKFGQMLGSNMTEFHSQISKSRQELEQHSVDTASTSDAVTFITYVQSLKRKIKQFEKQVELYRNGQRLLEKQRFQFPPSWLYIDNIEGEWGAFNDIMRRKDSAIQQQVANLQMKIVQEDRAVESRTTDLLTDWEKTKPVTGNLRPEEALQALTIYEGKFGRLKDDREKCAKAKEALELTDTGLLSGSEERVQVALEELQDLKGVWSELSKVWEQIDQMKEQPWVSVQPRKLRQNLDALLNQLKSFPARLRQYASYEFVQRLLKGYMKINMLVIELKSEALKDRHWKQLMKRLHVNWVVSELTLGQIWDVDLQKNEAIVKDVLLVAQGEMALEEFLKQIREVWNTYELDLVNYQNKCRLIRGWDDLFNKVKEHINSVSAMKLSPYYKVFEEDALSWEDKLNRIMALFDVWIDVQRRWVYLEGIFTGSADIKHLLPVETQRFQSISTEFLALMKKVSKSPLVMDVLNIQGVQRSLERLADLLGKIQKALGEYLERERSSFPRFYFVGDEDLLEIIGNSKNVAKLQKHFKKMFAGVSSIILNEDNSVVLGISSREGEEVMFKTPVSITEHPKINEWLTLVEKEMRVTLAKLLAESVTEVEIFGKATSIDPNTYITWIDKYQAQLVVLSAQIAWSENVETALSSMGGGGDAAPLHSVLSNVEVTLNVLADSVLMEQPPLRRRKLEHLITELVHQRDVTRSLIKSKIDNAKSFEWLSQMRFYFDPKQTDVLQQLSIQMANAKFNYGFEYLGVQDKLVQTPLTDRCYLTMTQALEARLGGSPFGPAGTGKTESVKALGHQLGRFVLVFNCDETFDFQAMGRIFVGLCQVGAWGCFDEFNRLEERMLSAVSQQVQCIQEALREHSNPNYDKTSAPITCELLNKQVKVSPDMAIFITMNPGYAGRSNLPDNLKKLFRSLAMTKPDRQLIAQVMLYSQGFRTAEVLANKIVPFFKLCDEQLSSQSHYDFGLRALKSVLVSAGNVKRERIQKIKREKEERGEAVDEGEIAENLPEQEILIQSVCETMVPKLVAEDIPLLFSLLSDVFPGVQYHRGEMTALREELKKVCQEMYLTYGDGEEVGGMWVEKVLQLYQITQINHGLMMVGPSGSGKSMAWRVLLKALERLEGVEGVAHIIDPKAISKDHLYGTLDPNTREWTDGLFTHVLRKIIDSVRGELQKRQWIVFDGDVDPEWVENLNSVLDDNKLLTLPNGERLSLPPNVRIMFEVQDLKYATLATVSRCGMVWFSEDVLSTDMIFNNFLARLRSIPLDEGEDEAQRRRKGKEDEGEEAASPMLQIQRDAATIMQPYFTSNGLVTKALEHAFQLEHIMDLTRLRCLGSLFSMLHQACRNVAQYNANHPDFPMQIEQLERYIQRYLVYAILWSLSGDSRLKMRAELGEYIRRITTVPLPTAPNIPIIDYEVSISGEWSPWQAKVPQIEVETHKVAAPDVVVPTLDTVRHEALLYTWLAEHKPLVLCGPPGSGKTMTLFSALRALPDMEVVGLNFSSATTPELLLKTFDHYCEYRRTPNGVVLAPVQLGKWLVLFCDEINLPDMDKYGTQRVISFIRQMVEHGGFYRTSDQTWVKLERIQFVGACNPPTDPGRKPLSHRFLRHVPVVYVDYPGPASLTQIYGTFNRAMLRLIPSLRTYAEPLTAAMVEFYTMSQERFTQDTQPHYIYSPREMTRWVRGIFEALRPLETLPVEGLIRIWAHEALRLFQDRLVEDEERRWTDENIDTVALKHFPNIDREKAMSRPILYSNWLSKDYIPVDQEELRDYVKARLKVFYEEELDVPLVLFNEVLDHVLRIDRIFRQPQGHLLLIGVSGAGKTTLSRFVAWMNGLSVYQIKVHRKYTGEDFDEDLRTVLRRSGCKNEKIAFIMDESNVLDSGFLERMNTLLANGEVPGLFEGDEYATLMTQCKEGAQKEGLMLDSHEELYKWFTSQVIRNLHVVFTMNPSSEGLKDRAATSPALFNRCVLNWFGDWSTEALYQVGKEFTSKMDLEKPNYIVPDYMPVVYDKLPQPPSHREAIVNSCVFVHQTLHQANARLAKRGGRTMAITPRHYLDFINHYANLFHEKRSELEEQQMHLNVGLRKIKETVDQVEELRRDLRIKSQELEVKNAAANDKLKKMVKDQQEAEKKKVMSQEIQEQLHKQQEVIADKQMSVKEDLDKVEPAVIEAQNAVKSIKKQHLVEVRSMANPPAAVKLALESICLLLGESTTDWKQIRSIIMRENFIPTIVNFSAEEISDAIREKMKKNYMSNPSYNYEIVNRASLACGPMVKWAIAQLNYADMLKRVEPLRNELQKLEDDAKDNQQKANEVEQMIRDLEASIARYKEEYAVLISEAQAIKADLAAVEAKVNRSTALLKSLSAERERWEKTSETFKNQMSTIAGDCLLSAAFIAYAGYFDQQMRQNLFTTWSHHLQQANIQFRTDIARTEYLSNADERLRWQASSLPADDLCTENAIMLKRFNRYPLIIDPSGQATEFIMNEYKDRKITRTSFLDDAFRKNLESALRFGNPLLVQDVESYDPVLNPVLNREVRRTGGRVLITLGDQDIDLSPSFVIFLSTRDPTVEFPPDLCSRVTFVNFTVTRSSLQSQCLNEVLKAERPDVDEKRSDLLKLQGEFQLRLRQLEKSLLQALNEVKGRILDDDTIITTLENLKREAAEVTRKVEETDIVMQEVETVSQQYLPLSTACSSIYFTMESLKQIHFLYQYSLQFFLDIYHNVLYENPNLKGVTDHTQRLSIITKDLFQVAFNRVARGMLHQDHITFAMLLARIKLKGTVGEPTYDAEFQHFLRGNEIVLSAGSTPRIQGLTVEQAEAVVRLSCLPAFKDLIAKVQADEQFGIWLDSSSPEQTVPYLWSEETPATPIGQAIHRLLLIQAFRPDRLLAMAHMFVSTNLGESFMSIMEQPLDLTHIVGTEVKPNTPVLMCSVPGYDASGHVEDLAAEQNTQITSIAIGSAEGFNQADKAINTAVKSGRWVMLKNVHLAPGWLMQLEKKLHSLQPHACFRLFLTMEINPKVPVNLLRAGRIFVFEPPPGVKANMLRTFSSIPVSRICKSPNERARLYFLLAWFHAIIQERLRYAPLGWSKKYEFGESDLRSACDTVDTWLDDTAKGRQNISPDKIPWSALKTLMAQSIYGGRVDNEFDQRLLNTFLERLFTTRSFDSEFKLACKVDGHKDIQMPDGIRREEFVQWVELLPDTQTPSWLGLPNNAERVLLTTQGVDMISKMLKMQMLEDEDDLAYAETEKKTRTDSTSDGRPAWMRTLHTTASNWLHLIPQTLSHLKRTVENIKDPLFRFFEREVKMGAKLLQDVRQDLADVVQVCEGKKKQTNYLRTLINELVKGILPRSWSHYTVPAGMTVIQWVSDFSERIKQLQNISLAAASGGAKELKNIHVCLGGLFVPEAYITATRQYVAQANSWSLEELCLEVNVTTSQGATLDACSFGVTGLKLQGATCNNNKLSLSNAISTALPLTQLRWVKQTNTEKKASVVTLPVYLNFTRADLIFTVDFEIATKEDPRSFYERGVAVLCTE
UniProt Q8TDX7: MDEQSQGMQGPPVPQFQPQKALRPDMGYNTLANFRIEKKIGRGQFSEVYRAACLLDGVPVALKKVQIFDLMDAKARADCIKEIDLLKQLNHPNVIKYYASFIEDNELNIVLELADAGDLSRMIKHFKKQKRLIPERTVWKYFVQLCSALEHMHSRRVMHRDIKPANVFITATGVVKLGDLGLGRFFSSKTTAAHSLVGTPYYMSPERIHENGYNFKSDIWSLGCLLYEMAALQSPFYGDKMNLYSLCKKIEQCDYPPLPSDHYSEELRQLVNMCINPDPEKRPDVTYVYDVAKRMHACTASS
UniProt P53350: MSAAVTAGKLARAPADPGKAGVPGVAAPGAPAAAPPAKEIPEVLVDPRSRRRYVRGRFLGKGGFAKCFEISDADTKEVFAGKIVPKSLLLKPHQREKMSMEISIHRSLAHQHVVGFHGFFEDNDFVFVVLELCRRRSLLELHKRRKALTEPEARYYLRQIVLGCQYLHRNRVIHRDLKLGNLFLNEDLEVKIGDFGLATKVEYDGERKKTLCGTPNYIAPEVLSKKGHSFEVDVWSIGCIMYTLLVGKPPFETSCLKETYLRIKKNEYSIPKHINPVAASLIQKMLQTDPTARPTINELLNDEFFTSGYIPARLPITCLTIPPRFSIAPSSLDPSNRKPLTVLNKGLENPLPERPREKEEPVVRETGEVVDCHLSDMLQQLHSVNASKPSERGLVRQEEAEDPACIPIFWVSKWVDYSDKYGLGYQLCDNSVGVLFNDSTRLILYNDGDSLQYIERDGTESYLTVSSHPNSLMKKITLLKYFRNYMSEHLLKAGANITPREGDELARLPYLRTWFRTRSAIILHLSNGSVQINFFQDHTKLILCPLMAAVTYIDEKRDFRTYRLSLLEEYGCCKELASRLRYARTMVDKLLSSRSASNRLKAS
UniProt P62333: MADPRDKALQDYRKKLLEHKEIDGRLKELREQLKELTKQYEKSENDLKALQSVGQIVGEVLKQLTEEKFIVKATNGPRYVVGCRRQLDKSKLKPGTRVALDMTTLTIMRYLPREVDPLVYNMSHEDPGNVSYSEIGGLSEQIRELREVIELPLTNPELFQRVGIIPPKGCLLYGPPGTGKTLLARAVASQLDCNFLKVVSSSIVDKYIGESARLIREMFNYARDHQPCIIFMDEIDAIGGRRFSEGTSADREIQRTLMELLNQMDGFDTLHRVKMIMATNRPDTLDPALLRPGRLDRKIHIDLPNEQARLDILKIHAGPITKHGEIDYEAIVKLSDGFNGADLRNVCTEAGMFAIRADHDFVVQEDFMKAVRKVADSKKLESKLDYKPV

B1: PLS3, endogenous (protein, UniProt P13797 1-630)
chain: MDEMATTQISKDELDELKEAFAKVDLNSNGFICDYELHELFKEANMPLPGYKVREIIQKLMLDGDRNKDGKISFDEFVYIFQEVKSSDIAKTFRKAINRKEGICALGGTSELSSEGTQHSYSEEEKYAFVNWINKALENDPDCRHVIPMNPNTDDLFKAVGDGIVLCKMINLSVPDTIDERAINKKKLTPFIIQENLNLALNSASAIGCHVVNIGAEDLRAGKPHLVLGLLWQIIKIGLFADIELSRNEALAALLRDGETLEELMKLSPEELLLRWANFHLENSGWQKINNFSADIKDSKAYFHLLNQIAPKGQKEGEPRIDINMSGFNETDDLKRAESMLQQADKLGCRQFVTPADVVSGNPKLNLAFVANLFNKYPALTKPENQDIDWTLLEGETREERTFRNWMNSLGVNPHVNHLYADLQDALVILQLYERIKVPVDWSKVNKPPYPKLGANMKKLENCNYAVELGKHPAKFSLVGIGGQDLNDGNQTLTLALVWQLMRRYTLNVLEDLGDGQKANDDIIVNWVNRTLSEAGKSTSIQSFKDKTISSSLAVVDLIDAIQPGCINYDLVKSGNLTEDDKHNNAKYAVSMARRIGARVYALPEDLVEVKPKMVMTVFACLMGRGMKRV
B2: AAAS, endogenous (protein, UniProt Q9NRG9 1-546)
chain: MCSLGLFPPPPPRGQVTLYEHNNELVTGSSYESPPPDFRGQWINLPVLQLTKDPLKTPGRLDHGTRTAFIHHREQVWKRCINIWRDVGLFGVLNEIANSEEEVFEWVKTASGWALALCRWASSLHGSLFPHLSLRSEDLIAEFAQVTNWSSCCLRVFAWHPHTNKFAVALLDDSVRVYNASSTIVPSLKHRLQRNVASLAWKPLSASVLAVACQSCILIWTLDPTSLSTRPSSGCAQVLSHPGHTPVTSLAWAPSGGRLLSASPVDAAIRVWDVSTETCVPLPWFRGGGVTNLLWSPDGSKILATTPSAVFRVWEAQMWTCERWPTLSGRCQTGCWSPDGSRLLFTVLGEPLIYSLSFPERCGEGKGCVGGAKSATIVADLSETTIQTPDGEERLGGEAHSMVWDPSGERLAVLMKGKPRVQDGKPVILLFRTRNSPVFELLPCGIIQGEPGAQPQLITFHPSFNKGALLSVGWSTGRIAHIPLYFVNAQFPRFSPVLGRAQEPPAGGGGSIHDLPLFTETSPTSAPWDPLPGPPPVLPHSPHSHL

Columns and labels:
[1] = biological target: PIAS2 beta isoform (PIAS2b), endogenous (human (endogenous in 8305C)) (UniProt O75928); assay: affinity purification with mass spectrometry; Proteomic Assay 1: immunoprecipitation with mPIAS2 (clone D-12) against mouse IgG2a isotype from 8305C extracts synchronized at mitosis (DT/R-6 h), glycerol lysis buffer, protein G-Sepharose, overnight 4 °C, 5 washes with HNTG buffer, LC-MS/MS (SWATH and spectrum count)
[2] = biological target: EGFP-hPIAS2b (human) (UniProt O75928); assay: affinity purification with mass spectrometry; Proteomic Assay 2: GFP-Trap of 8305C extracts (DT-6h) transfected with a non-toxic amount of EGFP-hPIAS2b against EGFP, SUMO-lysis buffer with N-ethylmaleimide, overnight 4 °C, LC-MS/MS (spectrum count)
[3] = biological target: PIAS2 beta isoform (PIAS2b), endogenous (human (endogenous in 8305C)) (UniProt O75928); assay: affinity purification with mass spectrometry; Proteomic Assay 1: immunoprecipitation with mPIAS2 (clone D-12) against mouse IgG2a isotype from 8305C extracts synchronized at mitosis (DT/R-6 h), glycerol lysis buffer, protein G-Sepharose, overnight 4 °C, 5 washes with HNTG buffer, LC-MS/MS (SWATH and spectrum count); remark: listed apart in the source

Row | Molecule | binding [1] | binding [2] | binding [3]
1 | CCNB1, endogenous (from UniProt P14635 1-433) | binds | – | –
2 | DYNC1H1, endogenous (from UniProt Q14204 1-4646) | binds | binds | –
3 | MACF1, endogenous (from UniProt Q9UPN3 1-7388) | binds | binds | –
4 | NEK7, endogenous (from UniProt Q8TDX7 1-302) | binds | – | –
5 | NUMA1, endogenous (from UniProt Q14980 1-2115) | binds | – | –
6 | PLEC, endogenous (from UniProt Q15149 1-4684) | binds | binds | –
7 | PLK1, endogenous (from UniProt P53350 1-603) | binds | – | –
8 | PSMB2, endogenous (from UniProt P49721 1-201) | binds | binds | –
9 | PSMC5, endogenous (from UniProt P62195 1-406) | binds | binds | –
10 | PSMC6, endogenous (from UniProt P62333 1-389) | binds | binds | –
11 | PSMD12, endogenous (from UniProt O00232 1-456) | binds | binds | –
12 | RANBP2, endogenous (from UniProt P49792 1-3224) | binds | – | –
13 | SPTAN1, endogenous (from UniProt Q13813 1-2472) | binds | binds | –
14 | TNPO1, endogenous (from UniProt Q92973 1-898) | binds | binds | –
15 | TUBB3, endogenous (from UniProt Q13509 1-450) | binds | binds | –
16 | TUBGPC2 (as printed), endogenous (from UniProt Q9BSJ2 1-902) | binds | – | –
17 | aurora kinase A (AURKA), endogenous (from UniProt O14965 1-403) | binds | – | –
18 | catalytic subunit of the serine/threonine-protein phosphatase 2A alpha isoform (PPP2CA), endogenous (from UniProt P67775 1-309) | binds | – | –
19 | gamma tubulin, endogenous (from UniProt P23258) | binds | – | –
20 | B1 | – | binds | binds
21 | B2 | – | – | binds
